Data as given in PubChem BioAssay (NCATS).
Where “and” joins values, the source holds several entries; their conditions need not be identical. Identical values can stand only once. The inconclusive results got no clear call from the source; some entries with a clear call stand among them for comparison. For part of these data: Potencies of inconclusive entries are doubtful fits and often do not repeat. Calls of active or inactive are those of the source. Unless noted, the call rests on the fitted dose curve; in most records, active means well fitted curve in the direction sought with a large enough effect; inconclusive means small, poorly fitted or top-dose-only effect, or another doubt; inactive means no such curve, though single readings can be large; an effect the other way counts as inactive or inconclusive.

Chains of the proteins cited; added tags and fusions are not shown.
UniProt P08659, whole entry, looked up: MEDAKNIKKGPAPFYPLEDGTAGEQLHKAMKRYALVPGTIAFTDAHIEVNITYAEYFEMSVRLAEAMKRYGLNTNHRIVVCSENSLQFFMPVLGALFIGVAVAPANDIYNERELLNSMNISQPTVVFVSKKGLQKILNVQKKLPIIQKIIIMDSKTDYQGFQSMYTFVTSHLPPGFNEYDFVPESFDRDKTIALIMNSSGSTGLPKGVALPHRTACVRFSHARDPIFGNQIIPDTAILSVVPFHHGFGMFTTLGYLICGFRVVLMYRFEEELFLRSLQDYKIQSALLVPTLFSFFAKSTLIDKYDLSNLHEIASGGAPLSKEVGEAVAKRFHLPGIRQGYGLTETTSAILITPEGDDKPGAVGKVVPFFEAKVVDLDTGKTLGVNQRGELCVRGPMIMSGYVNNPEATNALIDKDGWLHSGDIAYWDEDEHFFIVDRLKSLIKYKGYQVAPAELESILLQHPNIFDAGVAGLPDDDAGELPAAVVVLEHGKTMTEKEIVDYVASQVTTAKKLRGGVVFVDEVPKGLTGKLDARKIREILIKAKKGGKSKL
UniProt P10635, whole entry, looked up: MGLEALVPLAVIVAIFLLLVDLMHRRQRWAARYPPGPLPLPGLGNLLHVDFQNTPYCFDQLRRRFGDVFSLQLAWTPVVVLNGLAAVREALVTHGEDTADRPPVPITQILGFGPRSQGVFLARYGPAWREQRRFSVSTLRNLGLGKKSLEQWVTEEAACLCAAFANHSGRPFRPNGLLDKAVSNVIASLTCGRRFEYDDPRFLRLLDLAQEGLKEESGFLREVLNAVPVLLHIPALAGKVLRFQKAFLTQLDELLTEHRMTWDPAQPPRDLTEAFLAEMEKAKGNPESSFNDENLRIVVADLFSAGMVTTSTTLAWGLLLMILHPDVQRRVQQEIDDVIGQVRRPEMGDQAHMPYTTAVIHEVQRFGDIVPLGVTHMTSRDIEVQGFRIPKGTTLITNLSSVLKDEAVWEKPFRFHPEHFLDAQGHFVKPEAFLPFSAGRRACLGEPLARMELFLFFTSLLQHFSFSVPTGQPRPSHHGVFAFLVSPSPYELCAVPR
UniProt P36969, whole entry, looked up: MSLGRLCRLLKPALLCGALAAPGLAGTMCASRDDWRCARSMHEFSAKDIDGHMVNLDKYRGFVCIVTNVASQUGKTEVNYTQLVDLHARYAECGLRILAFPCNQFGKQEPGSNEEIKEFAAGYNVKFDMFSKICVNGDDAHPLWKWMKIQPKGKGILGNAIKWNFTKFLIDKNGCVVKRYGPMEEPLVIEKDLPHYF

Legend:
[1] = molecular target: Luciferin 4-monooxygenase (Photinus pyralis) (UniProt P08659); experiment: Firefly luciferase counterscreen qHTS: Assay Interference Panel against the NCATS CANVASS Library (AID 1347363); conditions: purified firefly luciferase, luminescence inhibition, 5 min; further: potency means the concentration at half of the fitted maximal effect
How it was run: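 Luminescence inhibition readout: compounds (11-point qHTS) sat 15 min at room temperature with substrate mix (0.013 mM luciferin and ATP), then firefly luciferase was added and signal read 5 min later.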

[2] = KB-8-5-11 Cancer Cell Toxicity qHTS against the NCATS CANVASS Library (AID 1347364); conditions: KB-8-5-11 MDR cells viability, CellTiter-Glo, 72 h; further: potency means the concentration at half of the fitted maximal effect; nearly all actives have a fitted effect of over 75% in size
How it was run: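 KB-8-5-11 cells, 500/well in DMEM + 10% FBS, given compounds in an 11-point series. Incubated 72 h at 37 °C. Viability by CellTiter-Glo luminescence. Confirmation also run with 1 uM tariquidar.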

[3] = KB-3-1 Cancer Cell Toxicity qHTS against the NCATS CANVASS Library (AID 1347366); further: nearly all actives have a fitted effect of over 75% in size
How it was run: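 KB-3-1 cells (500 cells/well) in DMEM + 10% FBS were treated with compounds for 72 hr at 37C, 5% CO2. Viability was read as CellTiter-Glo luminescence after 10 minutes at room temperature.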

[4] = qHTS for ATAD5 Antagonist screened against the NCATS CANVASS Library (AID 1347370);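 further: HEK293T cells carrying an ATAD5 luciferase reporter co-treated with 10 µM 5-fluorouridine; nearly all actives have a fitted effect of over 65% in size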
How it was run: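 HEK293T cells with stably integrated ATAD5-luciferase reporter, 2000/well, 5 h attachment; compounds plus 10 µM 5-fluorouridine, 16 h at 37 °C. Luciferase luminescence read, with CellTiter-Fluor viability read first.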

[5] = DH5-alpha competent E. coli microbial cell viability qHTS against the NCATS CANVASS Library (AID 1347377)
How it was run: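 DH5-alpha E. coli suspension was exposed to an 11-point compound series overnight at 37 °C. Viable cells quantified by ATP luminescence (BacTiter-Glo) after 20 min at room temperature.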

[6] = qHTS for Antimalaria activity screened against the NCATS CANVASS Library (AID 1347380);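 further: Plasmodium falciparum strain Dd2 asexual parasites grown in red blood cells; nearly all actives have a fitted effect of over 40% in size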
How it was run: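 Red blood cells infected with P. falciparum Dd2 (2.5% hematocrit final, 0.3% parasitemia) were exposed to compounds in an 11-point qHTS series for 72 hr at 37C under 5% O2 and 5% CO2. Lysis buffer with SYBR Green was then added for 18 hr, and fluorescence was read at 485/535 nm.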

[7] = Secretion counterscreen for inhibitors of the SERCaMP assay screened against the NCATS CANVASS Library (AID 1347390);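 further: light from luciferase secreted into medium read as a measure of general secretion; potency means the concentration at half of the fitted maximal effect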
How it was run: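 SH-SY5Y cells expressing constitutively secreted GLuc, 1000 cells/well, attached 4 h at 37C, then exposed to compounds (0.001 - 77 uM, 11-pnt series) for 20 h. Coelenterazine added; luminescence read to flag secretory-pathway interferers.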

[8] = qHTS for inhibitors of ER calcium dysfunction: SERCaMP assay screened against the NCATS CANVASS Library (AID 1347393); conditions: SH-SY5Y GLuc-SERCaMP (Gaussia luciferase released on ER calcium loss) secretion, thapsigargin, luminescence; further: potency means the concentration at half of the fitted maximal effect; nearly all actives have a fitted effect of over 40% in size
How it was run: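 Thapsigargin-induced ER calcium depletion drives GLuc-SERCaMP secretion from SH-SY5Y cells; compounds given 16 h beforehand were scored by lowered coelenterazine luminescence after 4 h challenge.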

[9] = molecular target: Cytochrome P450 2D6 (Homo sapiens) (UniProt P10635); experiment: Cytochrome P450 family 2 subfamily D member 6 (CYP2D6) small molecule antagonists: luciferase biochemical (cell-free) qHTS assay (AID 1645840; active means well fitted curve in the direction sought with a large enough effect in the repeat runs; inconclusive means weak or mixed curves; inactive means no such curve, though single readings can be large; an effect the other way counts as inactive or inconclusive; further: potency means the concentration at half of the fitted maximal effect; nearly all actives have a fitted effect of over 55% in size)
How it was run: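 P450-Glo luminescent screen: recombinant CYP2D6 enzyme–proluciferin substrate mix preincubated with compound 10 min at room temperature, then NADPH regeneration added for 1 h at room temperature. Detection reagent added for 20 min; luciferin light read as relative luminescence units.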

[10] = Primary qHTS for inhibitors of nuclear receptor binding SET domain protein 2 (NSD2) in an isogenic RCH-ACV NSD2 p.E1099K mutant (9B) (AID 1645876); conditions: activity change, negative = viability loss: at 44.9 µM (top of the series) unless noted; further: potency means the concentration at half of the fitted maximal effect; nearly all actives have a fitted effect of over 70% in size
[11] = Primary qHTS for inhibitors of nuclear receptor binding SET domain protein 2 (NSD2) in an RCH-ACV wild type WT cells (2C) (AID 1645877); conditions: activity change, negative = cell killing: at 44.9 µM (top of the series) unless noted; further: potency means the concentration at half of the fitted maximal effect; nearly all actives have a fitted effect of over 70% in size
[12] = molecular target: Phospholipid hydroperoxide glutathione peroxidase GPX4 (Homo sapiens) (UniProt P36969); experiment: Primary qHTS Assay for Inhibitors of Recombinant Selenoprotein Glutathione Peroxidase 4 (GPX4) (AID 1845192); conditions: activity change, negative = inhibition: at 50 µM (top of the series) unless noted; further: potency means the concentration at half of the fitted maximal effect; nearly all actives have a fitted effect of over 65% in size
How it was run: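 NADPH consumption, followed by fluorescence at 340/450 nm between 0 and 15 min, reports GPX4 activity via coupled glutathione reductase (100 nM). Enzyme 200 nM was pre-exposed to compound 30 min; 0.5 mM cumene hydroperoxide and 1 mM GSH served as substrates.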

[13] = Primary redox qHTS assay for identification of artifact compounds. (AID 1845223); further: potency means the concentration at half of the fitted maximal effect
How it was run: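 Amplex Red (25 uM) and HRP (250 mU/mL) in HBSS, with compounds for 15 min, then 250 uM DTT for 30 min, room temperature, dark. Fluorescence 525/598 nm read; normalized to DMSO and 10 uM DA3003; Hill fit.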

Es-2 = experiment: Primary qHTS to identify gynecologic anti-cancer compounds using libraries of approved drugs and bioactive compounds (AID 1345084); conditions: Gynecologic cancer cell panel viability, ATPlite luminescence, 48 h; series mostly up to 57.5 µM; further: potency means the concentration at half of the fitted maximal effect; nearly all actives have a fitted effect of over 55% in size
How it was run: (§1)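 Measured: luminescence after ATPlite addition (15 min, RT). Exposure: 48 h, 37 C, 5% CO2.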

OV90 = experiment: as above; conditions: Gynecologic cancer cell panel viability, ATPlite luminescence, 48 h; series mostly up to 57.5 µM
How it was run: as §1

PA-1 = experiment: as above; conditions: Gynecologic cancer cell panel viability, ATPlite luminescence, 48 h; series mostly up to 57.5 µM
How it was run: as §1

SKOV3 = experiment: as above; conditions: Gynecologic cancer cell panel viability, ATPlite luminescence, 48 h; series mostly up to 57.5 µM
How it was run: as §1

Tov-21-G = experiment: as above; conditions: Gynecologic cancer cell panel viability, ATPlite luminescence, 48 h; series mostly up to 57.5 µM
How it was run: as §1

Measured: Potency

O=C(/C=C/C=C/c1ccc2c(c1)OCO2)N1CCCCC1
inactive: [3] | [4] | [5] | [6]
inconclusive: [2] 46.5 µM [cytotoxic, single point] | [7] 8.55 µM [inhibitor, partial curve, poor fit] | [9] 37.9 µM [inhibitor, single point] | [10] 25.8 µM [inhibitor, single point] and 16.6 µM [inhibitor, partial curve] | [11] 25.8 µM [inhibitor, single point] and 18.6 µM [inhibitor, partial curve] | [12] 32.1 µM [inhibitor, partial curve, poor fit] | [13] 4.23 µM [activator, partial curve, poor fit] | Es-2 = 39.8 µM [cytotoxic, single point] | OV90 = 20 µM [cytotoxic, partial curve] | PA-1 = 35.5 µM [cytotoxic, single point] | SKOV3 = 22.4 µM [cytotoxic, single point] | Tov-21-G 22.4 µM [cytotoxic, partial curve, poor fit]
active: [1] 6.8 µM | [8] 60.5 µM
